In the supplement of paper PMC4604168 (melanoma cell lines):
Some of the results follow. Repeats are few or missing, and single values can be far off.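 Imaging used 1,536-well plates; nuclei positive for cleaved PARP by antibody were divided by total DNA-stained nuclei to yield the apoptosis fraction. Doses for screening kept most cells viable, and cell lines differ markedly in resting and induced cleaved-PARP levels.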

What follows are compounds tested on WM1716 (assay: cleaved PARP positive nuclei fraction relative to DMSO control; melanoma cells; higher = more apoptosis). Conditions: library dose: low library concentration; 72 h.

Compound	cleaved PARP positive nuclei fraction
O=C(O)[C@@H]1[O][Sb](=[O])([O][Sb]2(=[O])[O][C@H]([C@H](O)CO)[C@H](O)[C@H](C(=O)O)[O]2)[O][C@H]([C@H](O)CO)[C@@H]1O (stereo not given in full) [stibogluconate] + OCCn1cc(-c2cnc3nnn(Cc4ccc5ncccc5c4)c3n2)cn1 [PF04217903] (first compound 2 µM, partner dose 1 µM)	102%
C[C@@H](Oc1cc(-c2cnn(C3CCNCC3)c2)cnc1N)c1c(Cl)ccc(F)c1Cl [Crizotinib] + Oc1cc(-c2nc(-c3ccccc3)[nH]c2-c2ccncc2)ccc1Cl [L779450] (first compound 0.2 µM, partner dose 0.2 µM)	368%
C[C@@H](Oc1cc(-c2cnn(C3CCNCC3)c2)cnc1N)c1c(Cl)ccc(F)c1Cl [Crizotinib] + CCCCCCCCCCCC1=C(O)C(=O)C=C(O)C1=O [Embelin] (first compound 0.2 µM, partner dose 1.2 µM)	90.9%
Nc1ncn([C@H]2C[C@H](O)[C@@H](CO)O2)c(=O)n1 [decitabine] + O=C(Nc1ccccc1)c1cc([N+](=O)[O-])ccc1Cl [GW9662] (first compound 0.1 µM, partner dose 2 µM)	52.5%
C[C@@H](Oc1cc(-c2cnn(C3CCNCC3)c2)cnc1N)c1c(Cl)ccc(F)c1Cl [Crizotinib] + O=c1cc(-c2cccc3c2Sc2ccccc2S3)oc(N2CCOCC2)c1 [KU55933] (first compound 0.2 µM, partner dose 1 µM)	161%
CS(=O)(=O)CCNCc1ccc(-c2ccc3ncnc(Nc4ccc(OCc5cccc(F)c5)c(Cl)c4)c3c2)o1 [lapatinib] + OCCn1cc(-c2cnc3nnn(Cc4ccc5ncccc5c4)c3n2)cn1 [PF04217903] (first compound 0.8 µM, partner dose 1 µM)	89.9%
Cc1cc(Nc2cc(N3CCN(C)CC3)nc(/C=C/c3ccccc3)n2)n[nH]1 + N#Cc1c(O)c2c(-c3ccc(-c4ccccc4O)cc3)csc2[nH]c1=O [A769662] (first compound 0.04 µM, partner dose 2 µM)	75.6%
CCCS(=O)(=O)Nc1ccc(F)c(C(=O)c2c[nH]c3ncc(Cl)cc23)c1F + COc1cc2ncnc(Nc3ccc(Oc4ccccc4)cc3)c2cc1OC [SrcI1] (first compound 0.08 µM, partner dose 2 µM)	44.7%
Nc1nc(F)nc2c1ncn2[C@@H]1O[C@H](CO)[C@@H](O)[C@@H]1O [fludarabine] + CO[C@@H]1[C@H](N(C)C(=O)c2ccccc2)C[C@H]2O[C@]1(C)n1c3ccccc3c3c4c(c5c6ccccc6n2c5c31)C(=O)NC4 [Midostaurin] (first compound 0.2 µM, partner dose 0.08 µM)	280%
Nc1ncn([C@H]2C[C@H](O)[C@@H](CO)O2)c(=O)n1 [decitabine] + O=C(O)c1ccc(-c2c[nH]c3ncc(-c4ccccc4)cc23)cc1C1CCCC1 [GSK650394] (first compound 0.1 µM, partner dose 0.16 µM)	114%
CN1CCN(c2ccc3nc(-c4c(N)c5c(F)cccc5[nH]c4=O)[nH]c3c2)CC1 [Dovitinib] + Oc1cc(-c2nc(-c3ccccc3)[nH]c2-c2ccncc2)ccc1Cl [L779450] (first compound 0.1 µM, partner dose 0.2 µM)	48%
CS(=O)(=O)CCNCc1ccc(-c2ccc3ncnc(Nc4ccc(OCc5cccc(F)c5)c(Cl)c4)c3c2)o1 [lapatinib] + O=S(=O)(c1ccccc1)N(CC(F)(F)F)c1ccc(C(O)(C(F)(F)F)C(F)(F)F)cc1 [T0901317] (first compound 0.8 µM, partner dose 1.4 µM)	58.2%
CNC(=O)c1cc(Oc2ccc(NC(=O)Nc3ccc(Cl)c(C(F)(F)F)c3)cc2)ccn1 [sorafenib] + O=C(O)c1ccc(-c2c[nH]c3ncc(-c4ccccc4)cc23)cc1C1CCCC1 [GSK650394] (first compound 0.4 µM, partner dose 0.16 µM)	73.1%
CC(C)C[C@H](NC(=O)[C@H](Cc1ccccc1)NC(=O)c1cnccn1)B(O)O [Bortezomib] + NC(=O)Nc1cc(-c2cccc(F)c2)sc1C(=O)N[C@H]1CCCNC1 [AZD7762] (first compound 0.001 µM, partner dose 0.02 µM)	642%
Nc1nc(F)nc2c1ncn2[C@@H]1O[C@H](CO)[C@@H](O)[C@@H]1O [fludarabine] + NCC(=O)Nc1ccc(-n2nc(C(F)(F)F)cc2-c2ccc3c(ccc4ccccc43)c2)cc1 [OSU03012] (first compound 0.2 µM, partner dose 1 µM)	139%
CC(C)C[C@H](NC(=O)[C@H](Cc1ccccc1)NC(=O)c1cnccn1)B(O)O [Bortezomib] + COc1cc2c(Oc3ccc4[nH]c(C)cc4c3F)ncnc2cc1OCCCN1CCCC1 [cediranib] (first compound 0.001 µM, partner dose 0.4 µM)	720%
CC(C)C[C@H](NC(=O)[C@H](Cc1ccccc1)NC(=O)c1cnccn1)B(O)O [Bortezomib] + C[C@@H]1CCN(C(=O)CC#N)C[C@@H]1N(C)c1ncnc2[nH]ccc12 [CP690550] (first compound 0.001 µM, partner dose 1 µM)	968%
Nc1ccn([C@@H]2O[C@H](CO)[C@@H](O)C2(F)F)c(=O)n1 [gemcitabine] + C=CCn1c(=O)c2cnc(Nc3ccc(N4CCN(C)CC4)cc3)nc2n1-c1cccc(C(C)(C)O)n1 [MK1775] (first compound 0.0004 µM, partner dose 0.02 µM)	179%
CNC(=O)c1cc(Oc2ccc(NC(=O)Nc3ccc(Cl)c(C(F)(F)F)c3)cc2)ccn1 [sorafenib] + COc1cc2c(Oc3ccc4[nH]c(C)cc4c3F)ncnc2cc1OCCCN1CCCC1 [cediranib] (first compound 0.4 µM, partner dose 0.4 µM)	156%
CNC(=O)c1cc(Oc2ccc(NC(=O)Nc3ccc(Cl)c(C(F)(F)F)c3)cc2)ccn1 [sorafenib] + Cc1ccc(NC(=O)c2cccc(N(C)C)c2)cc1NC(=O)c1ccc(O)cc1 [ZM336372] (first compound 0.4 µM, partner dose 2 µM)	142%
C[C@@H](Oc1cc(-c2cnn(C3CCNCC3)c2)cnc1N)c1c(Cl)ccc(F)c1Cl [Crizotinib] + CCN(CC)CCCCNc1ncc2cc(-c3cc(OC)cc(OC)c3)c(NC(=O)NC(C)(C)C)nc2n1 [PD173074] (first compound 0.2 µM, partner dose 0.1 µM)	177%
Nc1ncn([C@H]2C[C@H](O)[C@@H](CO)O2)c(=O)n1 [decitabine] + O=c1cc(-c2cccc3c2Sc2ccccc2S3)oc(N2CCOCC2)c1 [KU55933] (first compound 0.1 µM, partner dose 1 µM)	145%
O=C(O)c1ccc2c(c1)nc(Nc1cccc(Cl)c1)c1ccncc12 + O=C(O)c1ccc(-c2c[nH]c3ncc(-c4ccccc4)cc23)cc1C1CCCC1 [GSK650394] (first compound 0.4 µM, partner dose 0.16 µM)	242%
Cc1cc(Nc2cc(N3CCN(C)CC3)nc(/C=C/c3ccccc3)n2)n[nH]1 + C=CCn1c(=O)c2cnc(Nc3ccc(N4CCN(C)CC4)cc3)nc2n1-c1cccc(C(C)(C)O)n1 [MK1775] (first compound 0.04 µM, partner dose 0.02 µM)	54.5%
Nc1ccn([C@@H]2O[C@H](CO)[C@@H](O)C2(F)F)c(=O)n1 [gemcitabine] + O=C(Nc1cccc(Cl)c1)Nc1ncc(CCNc2ncnc3ccsc23)s1 [SNS314] (first compound 0.0004 µM, partner dose 0.0008 µM)	28.5%
C[C@@H](Oc1cc(-c2cnn(C3CCNCC3)c2)cnc1N)c1c(Cl)ccc(F)c1Cl [Crizotinib] + CO[C@@H]1[C@H](N(C)C(=O)c2ccccc2)C[C@H]2O[C@]1(C)n1c3ccccc3c3c4c(c5c6ccccc6n2c5c31)C(=O)NC4 [Midostaurin] (first compound 0.2 µM, partner dose 0.08 µM)	142%
CC(C)C[C@H](NC(=O)[C@H](Cc1ccccc1)NC(=O)c1cnccn1)B(O)O [Bortezomib] + COc1ccc2c(c1)CCC1C2CCC2(C)C(NCCCCCCN3C(=O)C=CC3=O)CCC12 [U73122] (first compound 0.001 µM, partner dose 0.4 µM)	1150%
Nc1ccn([C@@H]2O[C@H](CO)[C@@H](O)C2(F)F)c(=O)n1 [gemcitabine] + OCCn1cc(-c2cnc3nnn(Cc4ccc5ncccc5c4)c3n2)cn1 [PF04217903] (first compound 0.0004 µM, partner dose 1 µM)	80.2%
CNC(=O)c1cc(Oc2ccc(NC(=O)Nc3ccc(Cl)c(C(F)(F)F)c3)cc2)ccn1 [sorafenib] + CO[C@@H]1[C@H](N(C)C(=O)c2ccccc2)C[C@H]2O[C@]1(C)n1c3ccccc3c3c4c(c5c6ccccc6n2c5c31)C(=O)NC4 [Midostaurin] (first compound 0.4 µM, partner dose 0.08 µM)	180%
O=C(O)[C@@H]1[O][Sb](=[O])([O][Sb]2(=[O])[O][C@H]([C@H](O)CO)[C@H](O)[C@H](C(=O)O)[O]2)[O][C@H]([C@H](O)CO)[C@@H]1O (stereo not given in full) [stibogluconate] + Cc1ccc(NC(=O)c2cccc(N(C)C)c2)cc1NC(=O)c1ccc(O)cc1 [ZM336372] (first compound 2 µM, partner dose 2 µM)	138%

Individual results from above.
For cleaved PARP positive nuclei fraction, Nc1nc(F)nc2c1ncn2[C@@H]1O[C@H](CO)[C@@H](O)[C@@H]1O [fludarabine] + NCC(=O)Nc1ccc(-n2nc(C(F)(F)F)cc2-c2ccc3c(ccc4ccccc43)c2)cc1 [OSU03012] (first compound 0.2 µM, partner dose 1 µM) shows 139%
For cleaved PARP positive nuclei fraction, C[C@@H](Oc1cc(-c2cnn(C3CCNCC3)c2)cnc1N)c1c(Cl)ccc(F)c1Cl [Crizotinib] + CCN(CC)CCCCNc1ncc2cc(-c3cc(OC)cc(OC)c3)c(NC(=O)NC(C)(C)C)nc2n1 [PD173074] (first compound 0.2 µM, partner dose 0.1 µM) shows 177%
